Data reported in PubChem BioAssay AID248 (DTP/NCI, 2004).
The list does not hold the whole screen: it is rich in T/C values a quarter to a half above the control, in often repeated tests (any T/C) and in doses without a T/C. Other doses and runs of a compound stand elsewhere. T/C gives the treated animals as a percentage of the vehicle group. Some doses have a count of surviving animals in place of a T/C: the source holds a T/C of zero for them, seemingly a mark for toxic or unscored doses. Some survivor counts are full or nearly so, which does not show that the dose was tolerated: survival well below the control is almost never listed, so the zero probably covers shortened survival too. Survivors were counted at the toxicity check, usually on the fifth day, unless a day is given; later deaths do not show. Schedule codes are those of the source, taken here to give the interval after Q, in days (D) or hours (H), and the number of doses after X. Some entries were tested several times; the values are given in rising order. Where survival is the endpoint, this PubChem deposit counts one and a half times the control or more as active, and values a quarter to a half above the control carry no call in these data; other NCI protocols may use other cut-offs. Some T/C values carry the count of animals alive at the toxicity check (mostly the fifth day); where none is given, no animal had died by that day.

Test system: L1210 leukemia ip in BDF1 mice, survival T/C
Assay: NCI In Vivo Anticancer Drug Screen. Data for tumor model L1210 Leukemia (intraperitoneal) in B6D2F1 (BDF1) mice
Conditions: T/C endpoint: mean survival time, higher T/C = longer survival
[1] = dose: 100.0 mg/kg/injection, schedule: Q04DX002 (ip), vehicle: saline
[2] = dose: 400.0 mg/kg/injection, schedule: Q01DX009 (ip), vehicle: Klucel (hydroxypropylcellulose) (HPC)
[3] = dose: 300.0 mg/kg/injection, schedule: Q01DX001 (ip), vehicle: saline

With `Cc1cncn1Cc1ccc([N+](=O)[O-])cc1` the survivor count (dose: 100.0 mg/kg/injection, schedule: Q01DX009 (ip), vehicle: saline) was 1 of 3, the T/C [1] was 97 [5 of 6 alive], 103, 103 % of control [4 of 6 alive] and the survivor count [1] was 1 of 3. For the same molecule, the survivor count (dose: 200.0 mg/kg/injection, schedule: Q04DX002 (ip), vehicle: saline) was 0 of 3 and 0 of 6 and the survivor count (dose: 400.0 mg/kg/injection, schedule: Q04DX002 (ip), vehicle: saline) was 0 of 3 and 0 of 6.
With `CC1CN1C(=O)Nc1cccc2c(NC(=O)N3CC3C)cccc12` (centres undefined) the T/C (dose: 3.61 mg/kg/injection, schedule: Q01DX009 (ip), vehicle: Klucel (hydroxypropylcellulose) (HPC)) was 126 % of control, the T/C (dose: 5.42 mg/kg/injection, schedule: Q01DX009 (ip), vehicle: Klucel (hydroxypropylcellulose) (HPC)) was 128 % of control and the T/C (dose: 8.22 mg/kg/injection, schedule: Q01DX009 (ip), vehicle: Klucel (hydroxypropylcellulose) (HPC)) was 126 % of control. For the same molecule, the T/C (dose: 25.0 mg/kg/injection, schedule: Q04DX003 (ip), vehicle: Klucel (hydroxypropylcellulose) (HPC)) was 128 % of control, the T/C (dose: 28.0 mg/kg/injection, schedule: Q01DX009 (ip), vehicle: Klucel (hydroxypropylcellulose) (HPC)) was 125 and 142 % of control and the T/C (dose: 33.0 mg/kg/injection, schedule: Q01DX001 (ip), vehicle: Klucel (hydroxypropylcellulose) (HPC)) was 126 and 133 % of control. The T/C (dose: 33.0 mg/kg/injection, schedule: Q04DX003 (ip), vehicle: Klucel (hydroxypropylcellulose) (HPC)) was 134 and 135 % of control, the T/C (dose: 42.5 mg/kg/injection, schedule: Q01DX009 (ip), vehicle: Klucel (hydroxypropylcellulose) (HPC)) was 142 % of control and the T/C (dose: 50.0 mg/kg/injection, schedule: Q01DX001 (ip), vehicle: Klucel (hydroxypropylcellulose) (HPC)) was 143 % of control. For the same molecule, the T/C (dose: 50.0 mg/kg/injection, schedule: Q04DX003 (ip), vehicle: Klucel (hydroxypropylcellulose) (HPC)) was 135 and 142 % of control, the survivor count (dose: 63.0 mg/kg/injection, schedule: Q01DX009 (ip), vehicle: Klucel (hydroxypropylcellulose) (HPC)) was 6 of 6 and the T/C (dose: 75.0 mg/kg/injection, schedule: Q01DX001 (ip), vehicle: Klucel (hydroxypropylcellulose) (HPC)) was 126 % of control. For the same molecule, the T/C (dose: 75.0 mg/kg/injection, schedule: Q04DX003 (ip), vehicle: Klucel (hydroxypropylcellulose) (HPC)) was 144 % of control, the T/C (dose: 100.0 mg/kg/injection, schedule: Q01DX001 (ip), vehicle: Klucel (hydroxypropylcellulose) (HPC)) was 132 % of control and the T/C (dose: 110.0 mg/kg/injection, schedule: Q04DX003 (ip), vehicle: Klucel (hydroxypropylcellulose) (HPC)) was 140 % of control. For the same molecule, the survivor count (dose: 170.0 mg/kg/injection, schedule: Q01DX009 (ip), vehicle: Klucel (hydroxypropylcellulose) (HPC)) was 5 of 6 and the survivor count (dose: 255.0 mg/kg/injection, schedule: Q04DX003 (ip), vehicle: Klucel (hydroxypropylcellulose) (HPC)) was 2 of 6.
`Nc1ccccc1C(=O)N/N=C/c1ccc(Cl)cc1Cl` was tested, and the survivor count [2] was 4 of 6.
With `COc1cc2c(cc1OC)C1(CCCl)C3CC4C(=CCOC5CC(=O)N2C1C54)CN3C(=O)Cc1ccccc1` (centres undefined) the survivor count (dose: 150.0 mg/kg/injection, schedule: Q01DX001 (ip), vehicle: saline) was 2 of 6 and the survivor count [3] was 0 of 6.
For `C[N+]1(CCl)CCOCC1`, the survivor count [3] was 0 of 6.
For `Cc1ccc(S(=O)(=O)Oc2ccccc2NC(=O)c2ccccc2)cc1`, the survivor count (dose: 200.0 mg/kg/injection, schedule: Q01DX009 (ip), vehicle: saline with Tween-80) was 3 of 3.
`COC(=O)/C(C#N)=N/O` was tested, and the survivor count (dose: 400.0 mg/kg/injection, schedule: Q04DX003 (ip), vehicle: saline with Tween-80) was 1 of 6.
In the case of `N=c1ccn(C(=O)C2=Cc3ccccc3OC2)cc1`, the survivor count (dose: 40.0 mg/kg/injection, schedule: Q04DX003 (ip), vehicle: saline with Tween-80) is reported as 0 of 6.
With `COC(=O)c1n[nH]c(C)c1N=NN1CCC(C(N)=O)CC1` the survivor count (dose: 75.0 mg/kg/injection, schedule: Q01DX001 (ip), vehicle: other) was 6 of 6, the survivor count (dose: 150.0 mg/kg/injection, schedule: Q01DX001 (ip), vehicle: other) was 4 of 6 and the survivor count (dose: 300.0 mg/kg/injection, schedule: Q01DX001 (ip), vehicle: other) was 0 of 6.
`[Cl][Ho]([Cl])[Cl]` was tested, and the survivor count [2] was 0 of 3.
`Cc1cc(C(C)(C)C)ccc1SC(=O)Nc1cc([N+](=O)[O-])ccc1Cl` was tested, and the survivor count (dose: 400.0 mg/kg/injection, schedule: Q01DX009 (ip), vehicle: gum acacia) was 6 of 6.
